Positions count from the first letter of the chain named. No constants are given. Whether binding was seen depends on the method and setting. In cells and extracts the contact can be indirect. Some results given as binding are weak or reduced against the parent protein; the word gives no strength. Where a sequence is shown, tags or fusion partners need not be part of it.
How the values were obtained:
Test in all cases: co-IP; 12xMyc-Met30 variants immunoprecipitated (Met30 IP) from yeast lysate; co-precipitated RGS6H-Cdc48 by western blot; Cdc48 recruitment during cadmium stress
[1] = target: T1, 12xMyc-Met30 C201S (S. cerevisiae) (UniProt P39014)
T1 sequence: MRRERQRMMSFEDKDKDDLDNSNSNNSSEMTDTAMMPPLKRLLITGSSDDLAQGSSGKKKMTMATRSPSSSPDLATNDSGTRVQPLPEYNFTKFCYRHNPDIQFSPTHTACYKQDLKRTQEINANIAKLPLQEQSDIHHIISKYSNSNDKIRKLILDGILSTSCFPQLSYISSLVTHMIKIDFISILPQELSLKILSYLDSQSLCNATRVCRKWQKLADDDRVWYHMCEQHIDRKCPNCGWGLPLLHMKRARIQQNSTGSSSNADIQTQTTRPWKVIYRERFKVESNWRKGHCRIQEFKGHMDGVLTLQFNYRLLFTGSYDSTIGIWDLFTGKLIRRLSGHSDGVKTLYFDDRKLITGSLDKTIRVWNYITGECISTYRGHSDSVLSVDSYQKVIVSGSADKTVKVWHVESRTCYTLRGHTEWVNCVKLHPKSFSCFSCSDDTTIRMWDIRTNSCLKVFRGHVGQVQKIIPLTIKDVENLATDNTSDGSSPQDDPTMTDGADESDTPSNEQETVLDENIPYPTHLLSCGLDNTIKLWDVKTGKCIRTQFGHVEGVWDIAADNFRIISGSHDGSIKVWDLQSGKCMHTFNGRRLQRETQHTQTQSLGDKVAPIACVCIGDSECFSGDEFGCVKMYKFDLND

Sequences of proteins named here, by UniProt entry; tags and fusion partners are left off.
UniProt P25694: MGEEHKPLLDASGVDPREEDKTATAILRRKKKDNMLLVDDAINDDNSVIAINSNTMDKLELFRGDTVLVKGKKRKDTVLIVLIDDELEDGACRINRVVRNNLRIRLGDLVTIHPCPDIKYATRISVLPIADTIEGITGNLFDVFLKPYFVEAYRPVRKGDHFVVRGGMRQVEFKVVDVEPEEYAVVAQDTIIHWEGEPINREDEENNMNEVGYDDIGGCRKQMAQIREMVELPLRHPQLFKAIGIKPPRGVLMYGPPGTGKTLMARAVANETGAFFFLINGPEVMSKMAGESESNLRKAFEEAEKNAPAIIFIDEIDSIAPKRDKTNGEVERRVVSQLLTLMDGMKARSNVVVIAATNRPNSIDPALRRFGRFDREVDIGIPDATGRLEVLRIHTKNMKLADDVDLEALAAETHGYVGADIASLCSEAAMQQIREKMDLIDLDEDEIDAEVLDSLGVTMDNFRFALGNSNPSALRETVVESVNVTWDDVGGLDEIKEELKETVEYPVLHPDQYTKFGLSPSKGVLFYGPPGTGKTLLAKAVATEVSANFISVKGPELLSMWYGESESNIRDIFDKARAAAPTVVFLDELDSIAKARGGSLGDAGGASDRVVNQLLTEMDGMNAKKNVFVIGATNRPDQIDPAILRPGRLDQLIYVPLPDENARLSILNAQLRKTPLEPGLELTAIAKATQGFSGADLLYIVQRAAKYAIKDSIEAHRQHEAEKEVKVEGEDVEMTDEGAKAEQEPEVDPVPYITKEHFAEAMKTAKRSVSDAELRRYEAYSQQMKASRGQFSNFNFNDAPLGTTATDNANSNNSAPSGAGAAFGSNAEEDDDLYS

[2] = target: T2, 12xMyc-Met30 C205S (S. cerevisiae) (UniProt P39014)
T2 sequence: T1 sequence with S201C, C205S

[3] = target: T3, 12xMyc-Met30 C211S (S. cerevisiae) (UniProt P39014)
T3 sequence: T1 sequence with S201C, C211S

[4] = target: T4, 12xMyc-Met30 wild type (S. cerevisiae) (UniProt P39014)
T4 sequence: T1 sequence with S201C

Measured: binding

RGS6H-Cdc48 (from UniProt P25694 1-835) (enzyme)
binds: [1] | [2] | [3] | [4]

Reference: publication PMC11079001
